The values that follow come from publication PMC10657434, “Architecture of the baculovirus nucleocapsid revealed by cryo-EM” (Nature Communications, 2023).

The assay addresses T1, AC101 (BV/ODV-C42) (Autographa californica multiple nucleopolyhedrovirus (AcMNPV)) (UniProt P25695).
T1 sequence: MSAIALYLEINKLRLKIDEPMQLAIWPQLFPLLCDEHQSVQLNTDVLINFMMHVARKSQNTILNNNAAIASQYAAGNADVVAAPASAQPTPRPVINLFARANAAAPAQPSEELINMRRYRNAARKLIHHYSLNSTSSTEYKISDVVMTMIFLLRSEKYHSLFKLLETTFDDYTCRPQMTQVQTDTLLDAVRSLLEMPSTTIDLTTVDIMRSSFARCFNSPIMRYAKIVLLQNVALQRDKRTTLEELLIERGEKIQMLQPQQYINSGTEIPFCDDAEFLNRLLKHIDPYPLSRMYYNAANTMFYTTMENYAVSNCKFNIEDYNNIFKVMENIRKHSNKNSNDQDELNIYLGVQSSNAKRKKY
Description: cryo-EM structure; head and base of native AcMNPV ODV nucleocapsids; local refinement 4.3 Å (elements common to both ends), 4.8 Å (base with AC98), 4.9 Å (plug); AlphaFold2 models docked into density and refined; partners co-purified as the native nucleocapsid; both purified.

These are yes or no findings as the source states them, for the method shown. In cells and extracts the contact can be indirect. Binding can be weak; no strength is given.

On to AC109, for which the binding entry is “binds”.
